# According to PubChem BioAssay AID504834 (National Center for Advancing Translational Sciences (NCATS), 2011):
# About 22,000 (6.9%) of roughly 320,000 compounds were called active. Inconclusive results, whose numbers are uncertain, are shown with a selection of clear calls. Calls follow the shape of the dose curve; as a rule, active = well fitted inhibition curve with a large enough effect; inconclusive = small, poorly fitted or top-dose-only effect, or another doubt; inactive = no such curve, though single readings can be large or run the other way. Potencies of inconclusive entries are doubtful fits and often do not repeat.
# Assay: Primary qHTS for delayed death inhibitors of the malarial parasite plastid, 96 hour incubation
# Details: P. falciparum luciferase reporter growth; series mostly up to 28.7 µM; activity change, negative = inhibition: at the top concentration
# Method in brief: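 Parasite growth measured via integrated firefly luciferase reporter in P. falciparum. Infected erythrocytes at 2% hematocrit, 0.05% parasitemia final were treated 96 hours at 37 C under 5% CO2, and luminescence was read.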
# % is scaled to controls: 0 for no effect and ±100 for the full control effect; potency is read from the fitted curve at half-maximal effect.
Structure (SMILES),"activity change, negative = inhibition",Potency
CCOc1cc(CNCCc2ccccc2)ccc1OCC(=O)NC(C)(C)C,inactive: 0.0933%,
CN(CC(=O)Nc1ccc(F)c(Cl)c1)S(=O)(=O)c1ccc2c(c1)n(C)c(=O)c(=O)n2C,,"inconclusive: 11.7 µM [inhibitor, single point]"
Cc1cc(C)n(-c2ccc(NC(=O)C3CCN(Cc4ccccn4)CC3)cc2)n1,,"inconclusive: 1.31 µM [inhibitor, full curve, poor fit]"
COc1ccc(S(=O)(=O)N(C)C)cc1NC(=O)CCCSc1ccccc1,,"inconclusive: 10.4 µM [inhibitor, partial curve, poor fit]"
Cc1cc(C2=NNC(=NC3CC3)SC2)c(C)n1-c1ccccc1F,,"inconclusive: 11.7 µM [inhibitor, single point]"
CCOc1ccc(-c2cc(C)[n+](CCO)c(-c3ccc(OCC)cc3)c2)cc1,,"inconclusive: 2.08 µM [inhibitor, full curve]"
Cc1cc(=O)n2nc(N3CCCC(C(=O)NCc4ccc(F)cc4)C3)sc2n1 (centres undefined),,"inconclusive: 0.37 µM [inhibitor, full curve]"
COc1ccc(C2CC(c3ccc(C)cc3)=NN2C(=O)c2ccccc2)cc1 (centres undefined),,"inconclusive: 1.65 µM [inhibitor, full curve, poor fit]"
Clc1ccc2oc(-c3ccccc3)cc(=NCCCN3CCOCC3)c2c1,,"inconclusive: 18.5 µM [inhibitor, single point]"
COC(=O)c1ccccc1N(C)S(=O)(=O)c1cc2c(cc1C)OCC(=O)N2,,"inconclusive: 13.1 µM [inhibitor, single point]"
CC(C)(CO)CNC(=O)CCc1nnc(C2(c3ccc(Cl)cc3)CCC2)o1,,"inconclusive: 11.7 µM [inhibitor, single point]"
O=C(CCNC(=O)c1ccco1)Nc1ccc(N2CCOCC2)cc1,,"inconclusive: 4.15 µM [inhibitor, single point]"
CCCCC(CC)COC(=O)c1ccccc1C(=O)OCC(CC)CCCC (centres undefined),inactive: -1.36%,
CCOc1ccccc1N=Nc1c(C)[nH]n(C(N)=S)c1=O,,"inconclusive: 1.04 µM [inhibitor, partial curve, poor fit]"
Cc1ccc(C(C(=O)NC2CCCC2)N(C(=O)c2csnn2)C2CC2)cc1 (centres undefined),inactive: 28.7%,
CC1NC(=O)N(C)[C@@H]2NC(=O)N(C)C(c3ccc([N+](=O)[O-])cc3)[C@@H]12 (some centres undefined),,"inconclusive: 4.15 µM [inhibitor, partial curve, poor fit]"
Cc1ccc(C)c(OCCCC(=O)Nc2nccs2)c1,,"inconclusive: 13.1 µM [inhibitor, partial curve, poor fit]"
CCN1CCC(NCC2CCCCC2)CC1,,"inconclusive: 11.7 µM [inhibitor, partial curve, poor fit]"
CN(Cc1ccc(Cl)cc1)C(=O)CNC(=O)C12CC3CC(CC(C3)C1)C2,,active: 10.4 µM
COc1ccc(-c2ncncc2-c2ccccc2)c(O)c1,,"inconclusive: 11.7 µM [inhibitor, partial curve, poor fit]"
O=C(Nc1ccccc1)Nc1nnc(Cc2ccccc2F)s1,,"inconclusive: 0.928 µM [inhibitor, partial curve, poor fit]"
CCOc1cccc2c1OC1(C)CC2NC(=O)N1c1ccc(OC)cc1 (centres undefined),,"inconclusive: 16.5 µM [inhibitor, single point]"

# In the list so far, these have fluorine:
Structure (SMILES),"activity change, negative = inhibition",Potency
CN(CC(=O)Nc1ccc(F)c(Cl)c1)S(=O)(=O)c1ccc2c(c1)n(C)c(=O)c(=O)n2C,,"inconclusive: 11.7 µM [inhibitor, single point]"
Cc1cc(C2=NNC(=NC3CC3)SC2)c(C)n1-c1ccccc1F,,"inconclusive: 11.7 µM [inhibitor, single point]"
Cc1cc(=O)n2nc(N3CCCC(C(=O)NCc4ccc(F)cc4)C3)sc2n1 (centres undefined),,"inconclusive: 0.37 µM [inhibitor, full curve]"
O=C(Nc1ccccc1)Nc1nnc(Cc2ccccc2F)s1,,"inconclusive: 0.928 µM [inhibitor, partial curve, poor fit]"

# Additional structures:

Structure (SMILES),"activity change, negative = inhibition",Potency
CN(C(=O)CCN1C(=O)S/C(=C\c2ccccc2)C1=O)C1CCS(=O)(=O)C1 (centres undefined),,"inconclusive: 9.28 µM [inhibitor, single point]"
Cc1nn(Cc2ccccc2)c(C)c1NS(=O)(=O)c1ccccc1,,active: 10.4 µM
CC(c1nccs1)N(C)C(=O)c1ccc(OC2CCN(CCc3ccccc3)CC2)cc1 (centres undefined),inactive: 17.9%,
Cc1ccc2nc(-c3ccc(NS(=O)(=O)c4ccc(F)cc4)cc3)sc2c1,inactive: 140%,
Cn1nc(C(F)(F)F)c(-c2cccc(C(F)(F)F)c2)c1NC(=O)c1cccnc1,,"inconclusive: 4.65 µM [inhibitor, partial curve]"
CC(=O)Nc1cc(C(=O)OCC(=O)c2ccccc2)ccc1C,inactive: 202%,
N#CC[n+]1cc(-c2ccc(Cl)cc2)n2c1CCC2,inactive: -8.19%,
O=C1[C@H]2[C@@H](c3ccc(Cl)cc3)N3C(=O)N(c4cccc(F)c4)C(=O)[C@@]3(Cc3ccccc3)[C@H]2C(=O)N1C1CCCCC1,,active: 8.28 µM
CC1=C(C(=O)N2CCOCC2)C(c2cc(C)ccc2C)NC(=S)N1 (centres undefined),inactive: -11.7%,
CC(C)(C)OC(=O)CC[C@@H](C(=O)NCCCCCCCCCCC(=O)N1CCN(C(=O)OC(C)(C)C)CC1)n1cc(CCCCCNC(=O)OC(C)(C)C)nn1,,active: 0.329 µM
O=C(Nc1ccc(C2CC2(Cl)Cl)cc1)c1ccccc1Br (centres undefined),,active: 0.928 µM
O=C(NCCCN1CCCC1=O)c1ccc(Cl)c(S(=O)(=O)N2CCCCC2)c1,,active: 5.22 µM
C=CCOn1c(=O)c(-c2ccc(OC)c(OC)c2)[n+]([O-])c2ccccc21,,"inconclusive: 0.465 µM [inhibitor, full curve, poor fit]"
O=C(Nc1nccs1)c1ccc(S(=O)(=O)N2CCCCC2)cc1,,"inconclusive: 10.4 µM [inhibitor, single point]"
CN(C(=O)c1ccccc1C(=O)OCC(=O)Nc1ccc(OC(F)F)cc1)c1ccccc1,,"inconclusive: 13.1 µM [inhibitor, single point]"
CCCc1n(CC(O)COCc2ccccc2)c2ccccc2[n+]1C (centres undefined),inactive: 5.58%,
O=C(N=Nc1c(O)n(Cc2ccccc2)c2ccccc12)c1ccncc1,,active: 13.1 µM
Cc1cc(OCC(=O)NNC(=S)NC(=O)c2cccs2)ccc1Cl,,"inconclusive: 18.5 µM [inhibitor, single point]"
CCCCCc1nc2c(=O)n(C)c3ccccc3c2o1,inactive: 1.59%,
Cc1ccc(S(=O)(=O)Nc2ccccc2C(=O)NCc2cccnc2)cc1,,"inconclusive: 18.5 µM [inhibitor, single point]"
Cc1nc(CC(=O)c2ccc(O)c(C)c2O)cs1,inactive: -5.71%,
COC(=O)c1ccccc1NC(=O)CCS(=O)(=O)c1ccc(Br)cc1,,"inconclusive: 0.0738 µM [inhibitor, full curve, poor fit]"
